According to the supplement of paper PMC10849652:
The other results are listed elsewhere or left out.

Amino acid sequences for entries named in this document (tags omitted). A change or cut given only in a name is not applied to a line headed by its entry.
UniProt P11055, whole entry, looked up: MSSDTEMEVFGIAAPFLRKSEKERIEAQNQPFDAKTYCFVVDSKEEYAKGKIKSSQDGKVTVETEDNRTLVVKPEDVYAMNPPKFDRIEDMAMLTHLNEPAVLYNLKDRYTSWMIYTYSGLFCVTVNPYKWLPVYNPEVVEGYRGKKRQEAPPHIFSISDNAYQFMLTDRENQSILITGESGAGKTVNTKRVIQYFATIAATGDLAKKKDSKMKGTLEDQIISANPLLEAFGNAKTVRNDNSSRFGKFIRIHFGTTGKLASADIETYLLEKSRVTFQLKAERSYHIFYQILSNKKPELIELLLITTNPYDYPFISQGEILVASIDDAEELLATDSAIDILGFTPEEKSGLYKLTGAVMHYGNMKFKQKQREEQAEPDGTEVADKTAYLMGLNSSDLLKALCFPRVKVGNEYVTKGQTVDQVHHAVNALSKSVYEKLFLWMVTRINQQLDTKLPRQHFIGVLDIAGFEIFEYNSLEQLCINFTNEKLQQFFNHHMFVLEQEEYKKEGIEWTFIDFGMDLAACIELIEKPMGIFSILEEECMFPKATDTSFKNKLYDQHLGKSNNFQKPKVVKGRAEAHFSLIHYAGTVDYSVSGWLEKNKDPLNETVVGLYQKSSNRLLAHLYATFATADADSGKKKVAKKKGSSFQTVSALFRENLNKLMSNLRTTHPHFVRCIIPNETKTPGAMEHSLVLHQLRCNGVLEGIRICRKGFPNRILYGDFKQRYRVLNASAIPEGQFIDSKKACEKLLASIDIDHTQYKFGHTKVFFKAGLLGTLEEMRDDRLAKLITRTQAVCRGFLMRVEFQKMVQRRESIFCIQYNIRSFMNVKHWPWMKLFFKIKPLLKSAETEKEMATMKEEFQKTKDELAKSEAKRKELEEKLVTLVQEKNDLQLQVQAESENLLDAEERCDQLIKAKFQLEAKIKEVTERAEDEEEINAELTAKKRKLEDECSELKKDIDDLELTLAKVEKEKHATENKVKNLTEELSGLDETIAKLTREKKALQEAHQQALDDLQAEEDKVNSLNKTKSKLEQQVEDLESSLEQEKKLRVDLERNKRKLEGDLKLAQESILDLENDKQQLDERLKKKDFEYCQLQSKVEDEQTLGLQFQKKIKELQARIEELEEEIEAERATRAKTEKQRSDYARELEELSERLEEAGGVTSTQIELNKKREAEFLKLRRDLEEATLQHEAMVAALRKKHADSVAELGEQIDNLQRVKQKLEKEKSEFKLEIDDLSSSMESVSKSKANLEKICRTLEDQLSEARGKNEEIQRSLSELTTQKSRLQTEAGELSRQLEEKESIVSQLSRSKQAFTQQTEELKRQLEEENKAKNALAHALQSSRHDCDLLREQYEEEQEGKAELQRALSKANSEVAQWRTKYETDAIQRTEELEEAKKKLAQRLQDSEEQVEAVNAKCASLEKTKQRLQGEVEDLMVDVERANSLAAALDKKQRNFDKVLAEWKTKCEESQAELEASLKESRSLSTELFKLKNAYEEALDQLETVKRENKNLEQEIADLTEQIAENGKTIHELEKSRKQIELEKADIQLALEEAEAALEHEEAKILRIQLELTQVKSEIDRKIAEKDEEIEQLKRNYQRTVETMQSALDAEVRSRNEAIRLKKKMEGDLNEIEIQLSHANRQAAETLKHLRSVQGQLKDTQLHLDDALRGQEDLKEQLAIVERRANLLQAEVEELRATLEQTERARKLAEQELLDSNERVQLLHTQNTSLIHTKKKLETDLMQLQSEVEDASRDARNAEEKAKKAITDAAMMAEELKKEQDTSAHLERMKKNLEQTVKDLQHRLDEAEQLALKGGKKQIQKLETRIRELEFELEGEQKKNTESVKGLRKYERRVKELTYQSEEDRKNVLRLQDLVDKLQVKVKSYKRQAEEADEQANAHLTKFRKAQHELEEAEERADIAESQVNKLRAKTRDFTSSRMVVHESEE
UniProt P08590, whole entry, looked up: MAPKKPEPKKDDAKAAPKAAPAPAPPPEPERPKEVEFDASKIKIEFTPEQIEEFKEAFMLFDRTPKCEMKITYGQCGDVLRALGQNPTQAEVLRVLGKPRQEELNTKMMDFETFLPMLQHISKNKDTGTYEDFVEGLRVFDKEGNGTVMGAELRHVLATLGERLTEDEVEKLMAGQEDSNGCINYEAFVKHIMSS
UniProt O43312: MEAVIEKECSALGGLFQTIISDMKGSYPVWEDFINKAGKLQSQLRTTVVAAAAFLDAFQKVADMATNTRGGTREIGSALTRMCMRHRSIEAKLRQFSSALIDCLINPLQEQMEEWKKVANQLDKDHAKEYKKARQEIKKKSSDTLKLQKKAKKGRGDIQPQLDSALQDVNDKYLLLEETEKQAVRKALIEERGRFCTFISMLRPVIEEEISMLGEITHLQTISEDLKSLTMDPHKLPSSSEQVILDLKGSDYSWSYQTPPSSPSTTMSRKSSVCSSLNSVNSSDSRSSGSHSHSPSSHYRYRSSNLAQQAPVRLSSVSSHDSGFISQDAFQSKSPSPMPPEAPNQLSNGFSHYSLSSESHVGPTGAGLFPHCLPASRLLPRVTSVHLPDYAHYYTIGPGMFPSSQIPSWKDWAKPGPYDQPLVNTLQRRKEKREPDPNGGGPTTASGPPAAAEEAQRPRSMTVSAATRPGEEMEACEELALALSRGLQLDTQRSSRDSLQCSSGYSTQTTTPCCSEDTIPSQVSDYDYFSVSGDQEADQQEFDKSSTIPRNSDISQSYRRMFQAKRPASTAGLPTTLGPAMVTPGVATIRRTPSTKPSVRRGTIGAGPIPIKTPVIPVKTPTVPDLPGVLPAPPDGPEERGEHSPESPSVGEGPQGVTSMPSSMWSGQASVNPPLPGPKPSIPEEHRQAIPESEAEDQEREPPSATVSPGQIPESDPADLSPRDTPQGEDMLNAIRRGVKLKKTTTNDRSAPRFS
UniProt P42285: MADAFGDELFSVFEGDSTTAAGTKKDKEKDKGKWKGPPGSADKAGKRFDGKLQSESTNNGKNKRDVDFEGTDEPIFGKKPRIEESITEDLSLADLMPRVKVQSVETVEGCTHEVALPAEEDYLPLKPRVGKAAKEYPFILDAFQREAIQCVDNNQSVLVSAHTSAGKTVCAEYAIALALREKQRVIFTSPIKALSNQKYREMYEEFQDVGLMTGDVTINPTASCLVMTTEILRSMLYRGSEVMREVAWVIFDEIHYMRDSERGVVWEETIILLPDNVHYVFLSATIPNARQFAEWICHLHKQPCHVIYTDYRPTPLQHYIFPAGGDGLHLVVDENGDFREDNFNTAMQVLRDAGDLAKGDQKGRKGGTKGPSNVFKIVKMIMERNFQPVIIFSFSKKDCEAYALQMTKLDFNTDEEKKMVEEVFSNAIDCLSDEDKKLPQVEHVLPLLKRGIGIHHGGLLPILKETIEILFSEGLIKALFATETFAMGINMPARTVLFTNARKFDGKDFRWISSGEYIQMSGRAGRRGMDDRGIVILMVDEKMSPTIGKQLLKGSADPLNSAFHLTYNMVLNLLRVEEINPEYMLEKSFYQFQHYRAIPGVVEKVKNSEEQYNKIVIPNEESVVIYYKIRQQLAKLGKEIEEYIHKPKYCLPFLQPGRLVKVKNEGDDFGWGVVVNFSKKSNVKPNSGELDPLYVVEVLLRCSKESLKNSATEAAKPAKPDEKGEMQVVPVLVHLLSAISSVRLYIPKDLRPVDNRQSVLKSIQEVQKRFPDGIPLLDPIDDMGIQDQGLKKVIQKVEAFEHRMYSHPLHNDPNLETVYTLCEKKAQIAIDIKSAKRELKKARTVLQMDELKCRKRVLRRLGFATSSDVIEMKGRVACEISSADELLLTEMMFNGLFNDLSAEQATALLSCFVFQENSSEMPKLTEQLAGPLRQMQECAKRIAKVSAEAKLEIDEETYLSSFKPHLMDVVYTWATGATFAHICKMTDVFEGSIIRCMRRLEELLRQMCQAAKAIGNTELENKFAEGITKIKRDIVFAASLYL
UniProt Q99836, whole entry, looked up: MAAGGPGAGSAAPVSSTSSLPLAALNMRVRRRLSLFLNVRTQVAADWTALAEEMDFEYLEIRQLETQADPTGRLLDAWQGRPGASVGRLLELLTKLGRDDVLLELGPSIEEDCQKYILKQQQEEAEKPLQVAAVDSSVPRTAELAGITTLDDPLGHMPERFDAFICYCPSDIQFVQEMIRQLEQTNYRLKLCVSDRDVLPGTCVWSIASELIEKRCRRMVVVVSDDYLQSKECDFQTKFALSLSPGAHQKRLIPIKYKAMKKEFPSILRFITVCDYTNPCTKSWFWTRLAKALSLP
UniProt Q96H55, whole entry, looked up: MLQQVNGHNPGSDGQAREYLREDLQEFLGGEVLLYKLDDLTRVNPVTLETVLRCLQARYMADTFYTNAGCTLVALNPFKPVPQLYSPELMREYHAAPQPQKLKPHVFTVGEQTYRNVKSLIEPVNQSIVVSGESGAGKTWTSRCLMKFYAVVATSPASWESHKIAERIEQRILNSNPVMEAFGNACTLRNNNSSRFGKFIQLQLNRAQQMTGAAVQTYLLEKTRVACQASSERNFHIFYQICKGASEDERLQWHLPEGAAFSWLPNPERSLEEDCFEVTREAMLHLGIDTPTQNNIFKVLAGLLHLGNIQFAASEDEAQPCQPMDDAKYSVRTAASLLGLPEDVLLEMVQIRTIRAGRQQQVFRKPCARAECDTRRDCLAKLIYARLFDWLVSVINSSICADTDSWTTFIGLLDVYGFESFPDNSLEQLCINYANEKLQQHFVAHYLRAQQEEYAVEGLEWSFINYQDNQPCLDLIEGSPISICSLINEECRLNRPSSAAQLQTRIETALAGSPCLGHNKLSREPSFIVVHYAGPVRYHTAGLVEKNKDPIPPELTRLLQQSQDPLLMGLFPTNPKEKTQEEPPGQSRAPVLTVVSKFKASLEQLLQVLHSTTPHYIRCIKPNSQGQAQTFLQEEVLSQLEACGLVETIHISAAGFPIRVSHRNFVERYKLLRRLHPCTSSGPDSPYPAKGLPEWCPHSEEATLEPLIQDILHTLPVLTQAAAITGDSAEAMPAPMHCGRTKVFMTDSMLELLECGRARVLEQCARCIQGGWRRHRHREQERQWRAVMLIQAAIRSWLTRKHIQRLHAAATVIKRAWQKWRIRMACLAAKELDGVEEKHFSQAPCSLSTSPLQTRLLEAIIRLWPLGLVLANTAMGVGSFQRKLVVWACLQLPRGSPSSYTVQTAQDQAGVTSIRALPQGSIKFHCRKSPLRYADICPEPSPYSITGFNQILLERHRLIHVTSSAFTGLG
UniProt Q9P0P8: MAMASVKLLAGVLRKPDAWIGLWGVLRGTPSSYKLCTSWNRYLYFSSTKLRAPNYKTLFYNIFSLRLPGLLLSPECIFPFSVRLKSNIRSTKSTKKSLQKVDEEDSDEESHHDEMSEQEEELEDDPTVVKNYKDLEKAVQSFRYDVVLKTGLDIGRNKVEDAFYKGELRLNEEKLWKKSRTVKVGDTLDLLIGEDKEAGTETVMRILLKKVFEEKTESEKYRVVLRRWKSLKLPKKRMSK
UniProt Q9ULH7: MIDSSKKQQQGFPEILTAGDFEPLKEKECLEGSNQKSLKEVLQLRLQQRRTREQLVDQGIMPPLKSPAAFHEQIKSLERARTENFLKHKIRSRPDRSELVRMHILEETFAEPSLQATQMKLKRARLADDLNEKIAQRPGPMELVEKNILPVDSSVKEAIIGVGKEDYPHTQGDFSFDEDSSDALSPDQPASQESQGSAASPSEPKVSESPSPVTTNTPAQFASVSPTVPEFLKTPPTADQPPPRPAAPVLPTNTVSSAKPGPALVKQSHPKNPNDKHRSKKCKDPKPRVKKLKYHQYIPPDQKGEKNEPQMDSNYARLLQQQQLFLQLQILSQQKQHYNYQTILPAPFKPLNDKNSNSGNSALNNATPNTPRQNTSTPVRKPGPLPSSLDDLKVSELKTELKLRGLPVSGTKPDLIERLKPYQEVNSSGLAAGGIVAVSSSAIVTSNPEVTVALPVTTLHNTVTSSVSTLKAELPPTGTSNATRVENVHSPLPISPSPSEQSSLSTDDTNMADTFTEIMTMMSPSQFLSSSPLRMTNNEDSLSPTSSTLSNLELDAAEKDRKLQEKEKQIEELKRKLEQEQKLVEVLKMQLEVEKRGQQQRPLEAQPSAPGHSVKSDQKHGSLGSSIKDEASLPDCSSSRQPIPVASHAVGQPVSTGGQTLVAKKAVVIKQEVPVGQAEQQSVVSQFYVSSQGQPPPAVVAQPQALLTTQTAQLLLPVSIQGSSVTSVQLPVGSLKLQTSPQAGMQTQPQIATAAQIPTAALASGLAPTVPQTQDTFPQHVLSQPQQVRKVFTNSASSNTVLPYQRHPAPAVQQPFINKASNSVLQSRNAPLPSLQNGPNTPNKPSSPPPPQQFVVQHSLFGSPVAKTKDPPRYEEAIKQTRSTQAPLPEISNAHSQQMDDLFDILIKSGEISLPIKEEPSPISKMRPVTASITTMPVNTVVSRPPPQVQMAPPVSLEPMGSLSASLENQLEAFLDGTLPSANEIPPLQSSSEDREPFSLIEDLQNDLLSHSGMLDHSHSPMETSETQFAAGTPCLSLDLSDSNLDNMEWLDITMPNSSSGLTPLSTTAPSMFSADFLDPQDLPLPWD

What was measured:
Assay in all cases: log2 fold change, soluble protein after heating vs DMSO (PISA); higher = thermal stabilisation; K562 cells, 10 uM, 30 min; active = over 0.2 and 3.5 SD of the protein, either way, in both replicates (recomputed)
[1] = compound: C1=CC=C(C=C1)[C@H](COC2=CC3=C(C=C2)NC(=O)N3)NC(=O)C4=CC=CN(C4=O)CC5=CC(=C(C=C5)F)F
How it was run: (§1)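 K562 cells at 2×10^6 cells/mL were treated for 30 min with 10 μM compound, and aliquots were heated for 3 min over 48°C-58°C before pooling. Extraction used PBS with 0.5% NP-40 at 4°C, and soluble protein was the supernatant after 21,000xg for 90 min, measured by TMTpro 16plex LC-MS/MS with channel sums equalised. Thermal stability values, relative to control samples and from duplicates, are log2 fold changes.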

[2] = compound: CC1=C(SC2=C1C(=N[C@H](C3=NN=C(N32)C)CC(=O)N)C4=CC=C(C=C4)Cl)C
How it was run: as §1

[3] = compound: Cc1sc2c(c1C)C(c1ccc(Cl)cc1)=N[C@@H](CC(=O)OC(C)(C)C)c1nnc(C)n1-2
How it was run: as §1

[4] = compound: c1ccc([C@@H]2C[C@H]2NC2CCNCC2)cc1
How it was run: as §1

[5] = compound: CC1=C2C(=CC=C1)N=C(N(C2=O)C3=CC=CC=C3C)CN4C=NC5=C(N=CN=C54)N
How it was run: as §1

Measured: log2 fold change

MYH3 (UniProt P11055)
inactive: [1] 0.16 | [2] -0.026 | [3] -0.156 | [4] 0.09

MRPL57 (UniProt Q9BQC6)
inactive: [1] 0.05 | [5] -0.07 | [3] 0.059

MYL3 (UniProt P08590)
inactive: [1] -0.024 | [2] 0.037 | [4] -0.02

MYBBP1A isoform 2 (UniProt Q9BQG0)
inactive: [1] -0.036 | [2] -0.309 | [3] -0.046 | [4] 0.034

MTSS1 isoform 5 (UniProt O43312)
inactive: [5] -0.023 | [3] -0.072

MVB12A (UniProt Q96EY5)
inactive: [1] -0.022 | [5] 0.265 | [3] 0.012

MTMR9 (UniProt Q96QG7)
inactive: [1] -0.011 | [2] 0.123 | [5] 0.09 | [3] 0.041 | [4] -0.041

MTREX (UniProt P42285)
inactive: [1] -0.031 | [2] 0.059 | [5] 0.063 | [3] -0.003 | [4] -0.001

MYO9A isoform 4 (UniProt B2RTY4)
inactive: [1] 0.181 | [5] 0.048

MYD88 isoform 6 (UniProt Q99836)
inactive: [1] 0.275 | [5] 0.079

Pulled one by one from above (two):
MTMR9 (UniProt Q96QG7)
inactive: [1] -0.011 | [2] 0.123 | [5] 0.09 | [3] 0.041 | [4] -0.041

MYL3 (UniProt P08590)
inactive: [1] -0.024 | [2] 0.037 | [4] -0.02

The list goes on:

MTFMT (UniProt Q96DP5)
inactive: [5] 0.004 | [3] 0.025

MTO1 isoform 6 (UniProt Q9Y2Z2)
inactive: [2] 0.06 | [5] 0.064 | [3] 0 | [4] -0.079

MRPS21 (UniProt P82921)
inactive: [1] -0.238 | [2] 0.032 | [5] 0.013 | [3] 0.116 | [4] -0.016

MYO19 (UniProt Q96H55)
inactive: [1] -0.07 | [2] 0.016 | [5] 0.146 | [4] 0.088

MTRES1 (UniProt Q9P0P8)
inactive: [3] 0.048

MRTFB isoform 5 (UniProt Q9ULH7)
inactive: [1] -0.025 | [2] 0.029 | [5] 0.086 | [3] 0.032 | [4] 0.032

MT-CO3 (UniProt P00414)
inactive: [2] 0.093 | [5] 0.347 | [3] -0.185 | [4] -0.178

MYO18B isoform 3 (UniProt Q8IUG5)
inactive: [1] -0.005 | [3] 0.23

MTURN (UniProt Q8N3F0)
inactive: [1] -0.01 | [5] -0.198 | [3] 0.106

MTERF3 (UniProt Q96E29)
inactive: [1] 0.055 | [3] 0.048
